Test results taken from patent publication US20090280123A1.
These are yes or no findings as the source states them, for the method shown. Binding seen in cells or lysates may run through a third protein. Some binding calls cover weakened binding; strength is not graded here. Sequences can lack the tags named with a protein.

By UniProt entry, the sequences of proteins in these tests, tags left out.
UniProt P03372: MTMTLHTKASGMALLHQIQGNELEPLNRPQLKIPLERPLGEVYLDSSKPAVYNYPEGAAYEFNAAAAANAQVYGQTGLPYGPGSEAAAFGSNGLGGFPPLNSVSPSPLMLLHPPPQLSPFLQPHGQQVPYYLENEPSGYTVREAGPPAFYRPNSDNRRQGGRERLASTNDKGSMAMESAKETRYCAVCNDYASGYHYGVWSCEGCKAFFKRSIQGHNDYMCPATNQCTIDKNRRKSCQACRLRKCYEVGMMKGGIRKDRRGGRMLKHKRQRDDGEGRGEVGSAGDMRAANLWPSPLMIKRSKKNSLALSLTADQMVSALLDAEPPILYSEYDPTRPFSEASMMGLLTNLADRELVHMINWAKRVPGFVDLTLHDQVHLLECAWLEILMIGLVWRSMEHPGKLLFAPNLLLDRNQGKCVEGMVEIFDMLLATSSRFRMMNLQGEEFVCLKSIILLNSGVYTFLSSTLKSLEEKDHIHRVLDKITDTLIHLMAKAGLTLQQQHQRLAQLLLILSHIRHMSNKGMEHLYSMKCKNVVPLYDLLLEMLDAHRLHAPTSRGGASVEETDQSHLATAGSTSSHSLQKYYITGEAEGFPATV

How the values were obtained:
[1] = target: ERα 66 kDa (UniProt P03372); assay: co-immunoprecipitation from co-transfected COS-7 lysate (IP anti-MS-KIF18A or anti-His, Western blot anti-ERα)
[2] = target: ERα 66 kDa (UniProt P03372); assay: co-immunoprecipitation from co-transfected COS-7 lysate

binding [1]: binds | binding [2]: binds
B1: His-MS-KIF18A (protein, not shown: small tags and cut ends)
chain: MSVTEEDLCHHMKVVVRVRPENTKEKAAGFHKVVHVVDKHILVFDPKQEEVSFFHGKKTTNQNVIKKQNKDLKFVFDAVFDETSTQSEVFEHTTKPILRSFLNGYNCTVLAYGATGAGKTHTMLGSADEPGVMYLTMLHLYKCMDEIKEEKICSTAVSYLEVYNEQIRDLLVNSGPLAVREDTQKGVVVHGLTLHQPKSSEEILHLLDNGNKNRTQHPTDMNATSSRSHAVFQIYLRQQDKTASINQNVRIAKMSLIDLAGSERASTSGAKGTRFVEGTNINRSLLALGNVINALADSKRKNQHIPYRNSKLTRLLKDSLGGNCQTIMIAAVSPSSVFYDDTYNTLKYANRAKDIKSSLKSNVLNVNNHITQYVKICNEQKAEILLLKEKLKAYEEQKAFTNENDQAKLMISNPQEKEIERFQEILNCLFQNREEIRQEYLKLEMLLKENELKSFYQQQCHKQIEMMCSEDKVEKATGKRDHRLAMLKTRRSYLEKRREEELKQFDENTNWLHRVEKEMGLLSQNGHIPKELKKDLHCHHLHLQNKDLKAQIRHMMDLACLQEQQHRQTEAVLNALLPTLRKQYCTLKEAGLSNAAFESDFKEIEHLVERKKVVVWADQTAEQPKQNDLPGISVLMTFPQLGPVQPIPCCSSSGGTNLVKIPTEKRTRRKLMPSPLKGQHTLKSPPSQSVQLNDSLSKELQPIVYTPEDCRKAFQNPSTVTLMKPSSFTTSFQAVSSNINSDNCLKMLCEVAIPHNRRKECGQEDLDSTFTICEDIKSSKCKLPEQESLPNDNKDILQRLDPSSFSTKHSMPVPSMVPSYMAMTTAAKRKRKLTSSTSNSSLTADVNSGFAKRVRQDNSSEKHLQENKPTMEHKRNICKINPSMVRKFGRNISKGNLR
